{"sequences": {"note": "Amino acid sequences for entries named in this document (tags omitted). A change or cut given only in a name is not applied to a line headed by its entry.", "UniProt Q9HCS7": "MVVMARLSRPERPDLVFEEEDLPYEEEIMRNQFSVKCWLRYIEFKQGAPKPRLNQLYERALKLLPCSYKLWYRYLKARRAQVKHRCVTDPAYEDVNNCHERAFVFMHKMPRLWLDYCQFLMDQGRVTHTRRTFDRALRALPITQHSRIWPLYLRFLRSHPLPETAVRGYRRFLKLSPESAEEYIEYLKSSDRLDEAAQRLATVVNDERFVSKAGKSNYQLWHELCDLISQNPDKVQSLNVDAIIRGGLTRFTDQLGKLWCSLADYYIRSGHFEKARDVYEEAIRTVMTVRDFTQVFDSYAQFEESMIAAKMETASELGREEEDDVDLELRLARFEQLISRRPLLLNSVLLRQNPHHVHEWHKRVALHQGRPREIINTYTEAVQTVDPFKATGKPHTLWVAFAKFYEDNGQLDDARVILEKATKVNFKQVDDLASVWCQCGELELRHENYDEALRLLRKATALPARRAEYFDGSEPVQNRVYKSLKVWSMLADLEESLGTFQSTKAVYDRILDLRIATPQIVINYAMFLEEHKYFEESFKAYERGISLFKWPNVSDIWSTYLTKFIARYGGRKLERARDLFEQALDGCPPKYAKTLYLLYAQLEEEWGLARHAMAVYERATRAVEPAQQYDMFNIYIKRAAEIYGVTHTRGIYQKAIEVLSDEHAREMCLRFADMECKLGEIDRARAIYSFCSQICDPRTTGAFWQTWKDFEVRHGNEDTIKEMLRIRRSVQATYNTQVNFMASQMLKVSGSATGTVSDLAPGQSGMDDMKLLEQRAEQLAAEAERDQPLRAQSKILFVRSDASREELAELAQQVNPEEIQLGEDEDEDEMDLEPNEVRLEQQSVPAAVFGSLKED", "UniProt Q9NRM2": "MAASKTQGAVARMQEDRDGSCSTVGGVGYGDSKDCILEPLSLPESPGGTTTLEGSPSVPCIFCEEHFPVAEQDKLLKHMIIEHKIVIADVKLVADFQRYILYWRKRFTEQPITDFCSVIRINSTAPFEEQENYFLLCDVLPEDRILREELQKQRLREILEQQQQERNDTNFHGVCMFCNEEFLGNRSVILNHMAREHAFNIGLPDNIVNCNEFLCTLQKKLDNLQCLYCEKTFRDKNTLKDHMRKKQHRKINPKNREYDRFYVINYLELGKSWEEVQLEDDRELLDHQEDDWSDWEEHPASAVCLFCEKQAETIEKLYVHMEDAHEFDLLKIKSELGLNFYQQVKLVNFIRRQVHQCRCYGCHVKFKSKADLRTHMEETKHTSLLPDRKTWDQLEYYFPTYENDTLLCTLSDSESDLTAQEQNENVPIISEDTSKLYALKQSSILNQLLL", "UniProt Q9NQG6": "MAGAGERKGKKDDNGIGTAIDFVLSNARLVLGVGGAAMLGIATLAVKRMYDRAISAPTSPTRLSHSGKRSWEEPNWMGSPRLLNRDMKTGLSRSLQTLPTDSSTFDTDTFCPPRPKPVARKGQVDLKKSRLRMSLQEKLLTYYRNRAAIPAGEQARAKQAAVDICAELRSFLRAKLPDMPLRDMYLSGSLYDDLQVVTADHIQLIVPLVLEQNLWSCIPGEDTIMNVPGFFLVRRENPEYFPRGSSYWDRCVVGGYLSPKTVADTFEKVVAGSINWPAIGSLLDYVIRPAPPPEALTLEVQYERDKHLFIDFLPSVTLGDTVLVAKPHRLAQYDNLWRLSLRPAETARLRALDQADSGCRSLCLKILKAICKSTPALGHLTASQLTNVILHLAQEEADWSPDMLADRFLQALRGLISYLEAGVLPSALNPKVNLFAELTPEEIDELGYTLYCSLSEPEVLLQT", "UniProt Q9NR46": "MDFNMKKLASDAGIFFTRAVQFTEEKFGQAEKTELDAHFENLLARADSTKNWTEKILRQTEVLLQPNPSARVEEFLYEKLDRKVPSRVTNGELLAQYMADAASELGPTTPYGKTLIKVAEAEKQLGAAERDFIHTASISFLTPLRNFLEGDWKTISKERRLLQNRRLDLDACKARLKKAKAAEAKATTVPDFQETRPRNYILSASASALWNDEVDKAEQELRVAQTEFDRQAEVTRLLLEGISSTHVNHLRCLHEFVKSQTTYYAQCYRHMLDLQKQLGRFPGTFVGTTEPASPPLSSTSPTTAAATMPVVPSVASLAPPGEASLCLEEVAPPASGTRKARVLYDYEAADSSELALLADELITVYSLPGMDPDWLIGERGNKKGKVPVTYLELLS", "UniProt Q9NRL3": "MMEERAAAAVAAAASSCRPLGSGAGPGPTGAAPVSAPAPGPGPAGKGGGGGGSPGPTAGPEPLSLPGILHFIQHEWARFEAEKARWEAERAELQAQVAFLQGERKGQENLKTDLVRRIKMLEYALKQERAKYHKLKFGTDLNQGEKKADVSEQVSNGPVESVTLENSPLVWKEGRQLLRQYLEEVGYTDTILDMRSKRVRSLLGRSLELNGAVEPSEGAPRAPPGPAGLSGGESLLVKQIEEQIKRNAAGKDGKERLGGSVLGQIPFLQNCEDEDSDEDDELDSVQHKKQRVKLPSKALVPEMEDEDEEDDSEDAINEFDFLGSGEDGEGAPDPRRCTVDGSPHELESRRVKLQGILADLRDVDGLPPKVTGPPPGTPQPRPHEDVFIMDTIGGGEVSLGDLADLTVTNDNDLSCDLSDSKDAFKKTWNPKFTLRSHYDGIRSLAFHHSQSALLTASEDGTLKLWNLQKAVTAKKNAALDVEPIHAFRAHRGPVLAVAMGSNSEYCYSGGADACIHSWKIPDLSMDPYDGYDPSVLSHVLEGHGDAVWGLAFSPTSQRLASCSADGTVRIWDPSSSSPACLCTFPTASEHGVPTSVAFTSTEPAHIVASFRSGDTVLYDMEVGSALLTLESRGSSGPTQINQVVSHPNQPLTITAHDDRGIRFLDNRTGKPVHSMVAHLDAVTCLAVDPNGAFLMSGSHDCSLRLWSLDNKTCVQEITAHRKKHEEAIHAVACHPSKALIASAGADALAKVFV", "UniProt Q9NUP1": "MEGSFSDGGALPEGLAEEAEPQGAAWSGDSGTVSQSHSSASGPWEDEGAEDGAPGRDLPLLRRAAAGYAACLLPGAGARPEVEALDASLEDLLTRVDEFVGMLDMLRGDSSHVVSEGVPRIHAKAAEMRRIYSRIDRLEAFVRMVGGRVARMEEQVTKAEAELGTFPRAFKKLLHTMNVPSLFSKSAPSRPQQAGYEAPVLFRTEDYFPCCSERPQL", "UniProt Q9H8H0": "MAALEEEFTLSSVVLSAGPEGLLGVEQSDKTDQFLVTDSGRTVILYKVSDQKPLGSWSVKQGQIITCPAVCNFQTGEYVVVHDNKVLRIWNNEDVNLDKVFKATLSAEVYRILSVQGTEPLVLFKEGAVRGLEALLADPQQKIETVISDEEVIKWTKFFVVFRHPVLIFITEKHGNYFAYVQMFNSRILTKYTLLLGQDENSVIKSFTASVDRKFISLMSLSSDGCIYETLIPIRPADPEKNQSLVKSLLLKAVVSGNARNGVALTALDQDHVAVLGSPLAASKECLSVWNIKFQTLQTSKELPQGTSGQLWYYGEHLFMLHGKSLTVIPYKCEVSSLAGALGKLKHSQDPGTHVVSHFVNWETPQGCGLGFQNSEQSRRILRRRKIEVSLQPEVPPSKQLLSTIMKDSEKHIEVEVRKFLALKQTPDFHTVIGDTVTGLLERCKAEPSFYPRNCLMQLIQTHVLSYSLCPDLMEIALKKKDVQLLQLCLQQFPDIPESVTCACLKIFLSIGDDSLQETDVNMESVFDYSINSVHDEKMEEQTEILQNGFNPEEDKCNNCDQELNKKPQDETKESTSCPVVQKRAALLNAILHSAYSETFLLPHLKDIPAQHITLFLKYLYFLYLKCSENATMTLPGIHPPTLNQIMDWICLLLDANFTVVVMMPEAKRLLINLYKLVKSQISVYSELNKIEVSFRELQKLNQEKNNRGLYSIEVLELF", "UniProt Q9HCK8": "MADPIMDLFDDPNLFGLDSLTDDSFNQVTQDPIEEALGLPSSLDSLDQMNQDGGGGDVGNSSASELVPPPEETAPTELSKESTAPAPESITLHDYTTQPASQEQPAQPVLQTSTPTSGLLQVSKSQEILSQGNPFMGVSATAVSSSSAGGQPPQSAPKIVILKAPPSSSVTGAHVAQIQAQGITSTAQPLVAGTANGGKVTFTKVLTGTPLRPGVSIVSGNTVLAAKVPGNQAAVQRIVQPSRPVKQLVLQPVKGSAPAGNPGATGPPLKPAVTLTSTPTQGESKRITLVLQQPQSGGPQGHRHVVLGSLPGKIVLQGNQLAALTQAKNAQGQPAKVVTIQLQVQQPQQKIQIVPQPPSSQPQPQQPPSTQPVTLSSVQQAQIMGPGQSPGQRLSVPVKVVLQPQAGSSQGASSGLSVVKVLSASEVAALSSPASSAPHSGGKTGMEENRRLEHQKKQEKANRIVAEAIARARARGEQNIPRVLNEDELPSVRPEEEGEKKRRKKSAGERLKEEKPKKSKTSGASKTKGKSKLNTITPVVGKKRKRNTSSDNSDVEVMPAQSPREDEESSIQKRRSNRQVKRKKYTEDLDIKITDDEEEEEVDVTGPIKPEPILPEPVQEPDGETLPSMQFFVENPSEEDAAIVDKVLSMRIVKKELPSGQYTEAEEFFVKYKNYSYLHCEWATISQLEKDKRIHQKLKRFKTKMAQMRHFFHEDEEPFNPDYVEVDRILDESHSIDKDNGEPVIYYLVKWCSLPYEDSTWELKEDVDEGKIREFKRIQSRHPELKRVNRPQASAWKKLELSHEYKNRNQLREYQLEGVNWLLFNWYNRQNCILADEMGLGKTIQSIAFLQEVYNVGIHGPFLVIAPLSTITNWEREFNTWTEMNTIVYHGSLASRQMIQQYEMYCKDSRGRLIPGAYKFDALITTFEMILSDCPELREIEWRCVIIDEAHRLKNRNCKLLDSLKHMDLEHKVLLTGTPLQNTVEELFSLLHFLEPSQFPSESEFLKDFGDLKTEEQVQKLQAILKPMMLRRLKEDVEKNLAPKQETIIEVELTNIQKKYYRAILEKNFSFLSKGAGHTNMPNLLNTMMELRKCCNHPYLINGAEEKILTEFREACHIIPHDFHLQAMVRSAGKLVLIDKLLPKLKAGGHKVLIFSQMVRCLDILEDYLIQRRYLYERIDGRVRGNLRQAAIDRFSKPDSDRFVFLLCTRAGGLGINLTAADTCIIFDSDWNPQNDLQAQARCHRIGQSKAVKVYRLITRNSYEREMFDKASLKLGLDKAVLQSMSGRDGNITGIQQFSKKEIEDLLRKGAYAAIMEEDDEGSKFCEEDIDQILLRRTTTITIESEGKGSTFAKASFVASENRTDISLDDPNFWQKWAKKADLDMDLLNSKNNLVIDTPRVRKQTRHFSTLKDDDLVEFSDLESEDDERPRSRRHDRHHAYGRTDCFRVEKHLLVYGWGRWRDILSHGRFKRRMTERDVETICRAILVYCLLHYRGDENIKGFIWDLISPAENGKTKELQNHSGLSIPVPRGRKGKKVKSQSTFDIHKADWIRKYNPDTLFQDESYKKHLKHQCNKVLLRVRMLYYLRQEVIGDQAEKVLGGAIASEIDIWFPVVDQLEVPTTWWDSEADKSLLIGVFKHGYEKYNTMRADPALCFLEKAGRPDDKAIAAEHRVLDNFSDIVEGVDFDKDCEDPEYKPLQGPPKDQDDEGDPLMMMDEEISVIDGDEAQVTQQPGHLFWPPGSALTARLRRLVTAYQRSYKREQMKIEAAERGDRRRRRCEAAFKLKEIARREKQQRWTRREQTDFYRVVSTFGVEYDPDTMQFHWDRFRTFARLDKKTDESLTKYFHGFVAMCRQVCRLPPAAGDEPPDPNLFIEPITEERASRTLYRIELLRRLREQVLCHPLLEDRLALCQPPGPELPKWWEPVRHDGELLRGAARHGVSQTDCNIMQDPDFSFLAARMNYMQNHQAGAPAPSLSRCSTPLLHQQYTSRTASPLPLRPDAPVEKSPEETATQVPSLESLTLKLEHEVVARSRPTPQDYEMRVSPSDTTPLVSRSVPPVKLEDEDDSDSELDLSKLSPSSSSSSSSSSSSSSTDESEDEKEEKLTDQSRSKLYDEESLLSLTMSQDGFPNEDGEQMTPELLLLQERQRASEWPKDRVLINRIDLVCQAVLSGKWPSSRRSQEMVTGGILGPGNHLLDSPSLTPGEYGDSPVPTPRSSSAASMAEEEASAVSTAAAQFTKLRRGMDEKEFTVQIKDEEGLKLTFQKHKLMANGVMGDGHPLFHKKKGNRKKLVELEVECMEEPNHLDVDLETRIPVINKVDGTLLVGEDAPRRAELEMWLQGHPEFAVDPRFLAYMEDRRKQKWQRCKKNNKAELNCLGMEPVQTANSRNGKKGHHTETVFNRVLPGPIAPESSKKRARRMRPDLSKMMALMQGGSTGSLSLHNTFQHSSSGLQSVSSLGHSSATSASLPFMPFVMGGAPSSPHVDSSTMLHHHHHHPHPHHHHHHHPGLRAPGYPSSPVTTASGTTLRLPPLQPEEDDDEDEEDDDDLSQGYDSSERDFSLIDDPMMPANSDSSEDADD"}, "source": "the supplement of paper PMC11006884", "note": "The entries are a selection whose mix differs from that of the whole data set. The data scatter; read single values as rough."}
{"compound": "COC(=O)/C=C/c1ccccc1 [methyl cinnamate]", "experiment": "log2 ratio of iodoacetamide-alkyne labeling of the cysteine site, DMSO over compound (competition); higher = stronger covalent engagement of the cysteine by the compound, active = 1 or more", "conditions": "500 µM; treatment time 1 h; system: HEK293T cell lysate", "how_it_was_run": "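Electrophile (500 µM) or vehicle was added to HEK293T lysate (2 mg/mL) for 1 h at ambient temperature before iodoacetamide alkyne labelling (1 h) and click coupling to sCIP-TMT reagents. After pooling, overnight trypsin digestion at 37 °C, streptavidin enrichment and acid elution, peptides were measured by Orbitrap Eclipse LC-MS/MS with FAIMS and quantified in FragPipe. Each cysteine's log2 competition ratio compares mean control-channel with mean compound-channel reporter intensity, control over compound. Data came from duplicate channels across three replicates, excluding cysteines quantified in only one replicate.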"}
{"target": "XAB2 C225 (UniProt Q9HCS7)", "log2 ratio of iodoacetamide-alkyne labeling": "inactive: 0.438"}
{"target": "ZNF277 C137 (UniProt Q9NRM2)", "log2 ratio of iodoacetamide-alkyne labeling": "inactive: 0.136"}
{"target": "UniProt Q9NQG6_C111", "log2 ratio of iodoacetamide-alkyne labeling": "inactive: 0.517"}
{"target": "LANCL2 C187 (UniProt Q9NS86)", "log2 ratio of iodoacetamide-alkyne labeling": "inactive: 0.0543"}
{"target": "SH3GLB2 C172 (UniProt Q9NR46)", "log2 ratio of iodoacetamide-alkyne labeling": "inactive: 0.116"}
{"target": "XPO5 C1044 (UniProt Q9HAV4)", "log2 ratio of iodoacetamide-alkyne labeling": "inactive: 0.313"}
{"target": "RNPEP C223 (UniProt Q9H4A4)", "log2 ratio of iodoacetamide-alkyne labeling": "inactive: -0.0804"}
{"target": "STRN4 C337 (UniProt Q9NRL3)", "log2 ratio of iodoacetamide-alkyne labeling": "inactive: 0.272"}
{"target": "UniProt Q9H6R7_C574", "log2 ratio of iodoacetamide-alkyne labeling": "inactive: 0.216"}
{"target": "MBIP C243 (UniProt Q9NS73)", "log2 ratio of iodoacetamide-alkyne labeling": "inactive: 0.122"}
{"target": "UniProt Q9NUP1_C211", "log2 ratio of iodoacetamide-alkyne labeling": "inactive: 0.169"}
{"target": "RAVER2 C631 (UniProt Q9HCJ3)", "log2 ratio of iodoacetamide-alkyne labeling": "inactive: 0.239"}
{"target": "NOL11 C368 (UniProt Q9H8H0)", "log2 ratio of iodoacetamide-alkyne labeling": "inactive: -0.0289"}
{"target": "CLSPN C397 (UniProt Q9HAW4)", "log2 ratio of iodoacetamide-alkyne labeling": "inactive: 0.27"}
{"target": "CHD8 C1947 (UniProt Q9HCK8)", "log2 ratio of iodoacetamide-alkyne labeling": "inactive: 0.201"}
